This assay has as its system L1210 leukemia ip in BDF1 mice, survival T/C. As to the kind of experiment: NCI In Vivo Anticancer Drug Screen. Data for tumor model L1210 Leukemia (intraperitoneal) in B6D2F1 (BDF1) mice. The following applies: T/C endpoint: mean survival time, higher T/C = longer survival.
The mark [1] stands for this setting: dose: 100.0 mg/kg/injection, schedule: Q01DX009 (ip), vehicle: saline with Tween-80.
The mark [2] stands for this setting: dose: 100.0 mg/kg/injection, schedule: Q01DX009 (ip), vehicle: Klucel (hydroxypropylcellulose) (HPC).
The mark [3] stands for this setting: dose: 200.0 mg/kg/injection, schedule: Q04DX003 (ip), vehicle: Klucel (hydroxypropylcellulose) (HPC).
[4] abbreviates: dose: 400.0 mg/kg/injection, schedule: Q04DX003 (ip), vehicle: Klucel (hydroxypropylcellulose) (HPC).
The mark [5] stands for this setting: dose: 100.0 mg/kg/injection, schedule: Q01DX001 (ip), vehicle: saline.
Where [6] appears, read: dose: 200.0 mg/kg/injection, schedule: Q01DX001 (ip), vehicle: saline.
[7] abbreviates: dose: 400.0 mg/kg/injection, schedule: Q01DX001 (ip), vehicle: saline.
Setting [8] is: dose: 400.0 mg/kg/injection, schedule: Q04DX003 (ip), vehicle: saline.
[9] abbreviates: dose: 100.0 mg/kg/injection, schedule: Q01DX009 (ip), vehicle: saline.
Setting [10] is: dose: 200.0 mg/kg/injection, schedule: Q01DX009 (ip), vehicle: saline.
[11] abbreviates: dose: 200.0 mg/kg/injection, schedule: Q04DX003 (ip), vehicle: saline.
Setting [12] is: dose: 400.0 mg/kg/injection, schedule: Q01DX009 (ip), vehicle: saline.
The mark [13] stands for this setting: dose: 400.0 mg/kg/injection, schedule: Q04DX003 (ip), vehicle: saline with Tween-80.
Where [14] appears, read: dose: 200.0 mg/kg/injection, schedule: Q01DX009 (ip), vehicle: Klucel (hydroxypropylcellulose) (HPC).

Drawing on PubChem BioAssay AID248 (DTP/NCI, 2004), this text covers survivor count and T/C for 26 compounds.

Each structure is given as a SMILES string. The list does not hold the whole screen: it is rich in T/C values a quarter to a half above the control, in often repeated tests (any T/C) and in doses without a T/C. Further doses and runs are listed elsewhere. T/C gives the treated animals as a percentage of the vehicle group. Some entries give survivors of the animals treated and no T/C: the source holds a T/C of zero for them, seemingly a mark for toxic or unscored doses. Some survivor counts are full or nearly so, which does not show that the dose was tolerated: survival well below the control is almost never listed, so the zero probably covers shortened survival too. Counts of survivors are from the toxicity check (mostly the fifth day) where no day follows; animals may have died later. Schedules are NCI's codes, read here as Q, the interval in days (D) or hours (H), X, the number of doses. Some molecules as drawn cover several salts, stereoisomers or complexes of the source; a dose is that of the sample tested. Some doses were run more than once; the results are listed from low to high. For survival time, this PubChem deposit counts one and a half times the control or more as active, and values a quarter to a half above the control carry no call in these data; other NCI protocols may use other cut-offs.

For `Nc1cnccc1N1CCN(c2cccc3ccccc23)CC1`, the survivor count by setting is: under setting [1], 6 of 6; (dose: 200.0 mg/kg/injection, schedule: Q01DX009 (ip), vehicle: saline with Tween-80) 1 of 6; (dose: 400.0 mg/kg/injection, schedule: Q01DX009 (ip), vehicle: saline with Tween-80) 0 of 6.
For the compound `O=[N+]([O-])c1ccc2nccc(Cl)c2c1`, the survivor count reads like this: under setting [2], 0 of 6; under setting [3], 0 of 6; under setting [4], 0 of 6.
Turning to `COc1cc(C(=O)CO)cc(OC)c1OC(C)=O`, the survivor count runs as follows: under setting [5], 4 of 4; under setting [6], 4 of 4; under setting [7], 4 of 4.
`CCCCNC(C)(C)C(=O)c1cccs1`: under setting [8], the survivor count is on record as 0 of 6.
For `COc1cc(/C=N/NC(=O)CCCCCCCCC(=O)N/N=C/c2ccc(O)c(OC)c2)ccc1O`, where the note is “dose: 400.0 mg/kg/injection, schedule: Q04DX002 (ip), vehicle: saline with Tween-80”, the survivor count is 3 of 6.
As for `CNCCOC(c1ccccc1)c1ccccc1C` (stereo unspecified), the survivor count is 3 of 6 under setting [5]; 0 of 6 under setting [9]; 2 of 4 (dose: 100.0 mg/kg/injection, schedule: Q04DX003 (ip), vehicle: saline); 0 of 6 under setting [6]; 0 of 6 under setting [10]; 0 of 4 under setting [11]. Further, the survivor count is 0 of 6 under setting [7], 0 of 6 under setting [12] and 0 of 4 under setting [8].
On to `O=C(O)CC1(C(=O)O)CC2(Cl)C(Cl)=C(Cl)C1(Cl)C2(Cl)Cl` (stereo unspecified), for which, under setting [13], the survivor count is 6 of 6.
On to `CN(C)/N=C/C=C/c1ccccc1`, for which the survivor count under setting [14] is 0 of 6, the survivor count under setting [12] was 0 of 6 and the survivor count under setting [4] is 5 of 6.
Turning to `CC(=O)Nc1ccc(/C=N/NC(=O)c2ccc(C)cc2)cc1`, under setting [1], the survivor count is 3 of 3.
For the compound `Cc1cc(C)c(CCl)c(C)c1CCl`, the survivor count under setting [6] is listed as 2 of 4 and the survivor count under setting [7] was 0 of 4.
For `O=S(O)c1ncnc2nc[nH]c12`, the T/C under setting [9] was 129 % of control; the T/C under setting [10] is 131 % of control; the T/C (dose: 265.0 mg/kg/injection, schedule: Q01DX009 (ip), vehicle: saline) was 127 % of control; the T/C under setting [12] was 136 and 148 % of control.
As to `Nc1nc(CCl)cs1`, the survivor count by setting is: under setting [3], 0 of 6; under setting [4], 0 of 6.
On to `O=NN(CS(=O)(=O)O)c1ccccc1`, for which the survivor count under setting [8] is recorded as 0 of 6.
On to `COc1cc([N+](=O)[O-])ccc1NC(=O)N(C)Cc1ccccc1`, for which the survivor count (dose: 200.0 mg/kg/injection, schedule: Q01DX001 (ip), vehicle: saline with Tween-80) is reported as 6 of 6.
As to `C=C(S(=O)(=O)c1ccccc1)S(=O)(=O)c1ccccc1` (tested in a mixture with another compound), the survivor count (dose: 100.0 mg/kg/injection, schedule: Q04DX002 (ip), vehicle: Klucel (hydroxypropylcellulose) (HPC)) is on record as 0 of 3 and the survivor count (dose: 400.0 mg/kg/injection, schedule: Q04DX002 (ip), vehicle: Klucel (hydroxypropylcellulose) (HPC)) is 0 of 3.
For `Cc1cc2oc(=O)c(Cl)c(Cl)c2c(C)c1Cl`, the survivor count (dose: 40.0 mg/kg/injection, schedule: Q01DX001 (ip), vehicle: saline) is given as 0 of 6; the survivor count (dose: 40.0 mg/kg/injection, schedule: Q01DX009 (ip), vehicle: Klucel (hydroxypropylcellulose) (HPC)) was 2 of 6; the survivor count (dose: 40.0 mg/kg/injection, schedule: Q04DX003 (ip), vehicle: Klucel (hydroxypropylcellulose) (HPC)) was 5 of 6; the survivor count (dose: 75.0 mg/kg/injection, schedule: Q01DX001 (ip), vehicle: saline) is 0 of 6; the survivor count (dose: 150.0 mg/kg/injection, schedule: Q01DX001 (ip), vehicle: saline) was 0 of 6; the survivor count (dose: 300.0 mg/kg/injection, schedule: Q01DX001 (ip), vehicle: saline) is recorded as 0 of 6.
Turning to `Cc1nc(N)[nH]c(=O)c1/C=C\C(=O)c1ccccc1`, the survivor count (dose: 50.0 mg/kg/injection, schedule: Q01DX001 (ip), vehicle: carboxymethylcellulose (CMC)) is 4 of 4.
Regarding `COc1ccc(OC)c(NC(=O)Nc2ccc([As](=O)(O)O)cc2)c1`, the survivor count is given as 6 of 6 (dose: 100.0 mg/kg/injection, schedule: Q04DX003 (ip), vehicle: Klucel (hydroxypropylcellulose) (HPC)) and 5 of 6 under setting [4].
On to `CCCCCCCCCCCCCCCCCC1=NC(C)CC(C)(C)O1` (stereo unspecified), for which the survivor count under setting [8] is given as 2 of 6.
`NNC(=O)C1C2CCCCC21` (stereo unspecified): the survivor count was 0 of 6 (dose: 150.0 mg/kg/injection, schedule: Q01DX009 (ip), vehicle: saline with Tween-80); 5 of 6 (dose: 200.0 mg/kg/injection, schedule: Q04DX003 (ip), vehicle: saline with Tween-80); 0 of 6 (dose: 225.0 mg/kg/injection, schedule: Q01DX009 (ip), vehicle: saline with Tween-80); 0 of 6 (dose: 335.0 mg/kg/injection, schedule: Q01DX009 (ip), vehicle: saline with Tween-80); 0 of 6 under setting [13].
Turning to `CCOc1cc(OCC)c(OCC)cc1C=C(C#N)C#N`, the survivor count under setting [14] is 6 of 6.
On to `BrCc1cc2ccccc2cc1CBr`, for which the survivor count is, setting by setting: under setting [2], 1 of 6 and 5 of 6; under setting [14], 0 of 6; (dose: 400.0 mg/kg/injection, schedule: Q01DX009 (ip), vehicle: Klucel (hydroxypropylcellulose) (HPC)) 0 of 6.
Consider `COc1ccc(OC)c(NC(=O)NNc2c([N+](=O)[O-])cc(C(F)(F)F)cc2[N+](=O)[O-])c1`, for which, for the setting “dose: 400.0 mg/kg/injection, schedule: Q01DX009 (ip), vehicle: other”, the survivor count is on record as 0 of 6.
Turning to `Nc1cc(=S)c2[nH]cnc2[nH]1`, where the note is “dose: 200.0 mg/kg/injection, schedule: Q01DX001 (ip), vehicle: Klucel (hydroxypropylcellulose) (HPC)”, the survivor count was 6 of 6.
As for `Cc1ccc(S(=O)(=O)O)cc1`, the survivor count was 2 of 6 under setting [9]; 0 of 6 under setting [10]; 0 of 6 under setting [11]; 0 of 6 and 4 of 6 under setting [12]; 0 of 6 under setting [8].
`C=C[C+](CCCC)C(=O)[O-]`: the survivor count is on record as 2 of 6 under setting [11]; 0 of 6 (dose: 335.0 mg/kg/injection, schedule: Q01DX009 (ip), vehicle: saline); 0 of 6 (dose: 400.0 mg/kg/injection, schedule: Q01DX001 (ip), vehicle: acetone).
